Data source: PubChem BioAssay AID652259 (Drosophila RNAi Screening Center, 2013)

- Assay: 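Knock-downs that push a Wingless-driven reporter up or down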 (primary screen)
- Cells: Drosophila clone 8 imaginal disc epithelial cells
- Reagent: long dsRNA against Drosophila genes
- Challenge: pathway stimulated by co-transfected Wingless expression plasmid
- Measured: 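Dual luciferase reads per well after Wingless plasmid stimulation: reporter firefly light and Renilla control light; activity is firefly divided by Renilla, a ratio not deposited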
- Scale: firefly reporter light: higher = more Wg reporter light, before normalisation; Renilla control light: higher = more transfected or surviving cells
- Rule for the call: 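a knock-down is a candidate when at least two out of four statistical tests show it departing from its plate mean; one test alone signals a weak candidate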
- Calls: active = candidate regulator (raises or lowers reporter); inactive = not a candidate
The deposit covers about 22,000 reagents; this is a random part of those that have a named target and a result. In the full data, 233 (1.1%) got an active call. 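Light values are raw, unnormalised plate reads; the ratio scores behind the reporter calls were not deposited.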 A number with no mark means an inactive call. A plus sign joins genes that one reagent is predicted to hit. Not given: the amount of reagent, the time to read-out, the dose of the treatment.

For CG13771 [DRSC02277], how do the results read?
firefly reporter light, replicate 1: 1508; firefly reporter light, replicate 2: 4921; Renilla control light, replicate 1: 944; Renilla control light, replicate 2: 2464

What did the screen give for CG14185 [DRSC10184]?
firefly reporter light, replicate 1: 11545; Renilla control light, replicate 1: 4641

With Rab3 [DRSC07523], how do the results read?
firefly reporter light, replicate 1: 22192; Renilla control light, replicate 1: 6612

With CG33552 [DRSC01551], what does the deposit list?
firefly reporter light, replicate 1: 17956; Renilla control light, replicate 1: 8417

With TAF1C-like [DRSC04073], what was measured?
firefly reporter light, replicate 1: 12939; Renilla control light, replicate 1: 4481

What is on record for CG4949 [DRSC19926]?
firefly reporter light, replicate 1: 2282; firefly reporter light, replicate 2: 7101; Renilla control light, replicate 1: 1357; Renilla control light, replicate 2: 3414

With CG10337 [DRSC02038], what does the deposit list?
firefly reporter light, replicate 1: 2893; firefly reporter light, replicate 2: 6476; Renilla control light, replicate 1: 850; Renilla control light, replicate 2: 2808

What is on record for Cypl [DRSC08362]?
firefly reporter light, replicate 1: 6993; Renilla control light, replicate 1: 4449

Which result is listed for CG45002 [DRSC20144]?
firefly reporter light, replicate 1: 19739; Renilla control light, replicate 1: 10757

What is on record for mil [DRSC15696]?
firefly reporter light, replicate 1: 9859; Renilla control light, replicate 1: 3493

With BRWD3 [DRSC15369], what was measured?
firefly reporter light, replicate 1: 6569; firefly reporter light, replicate 2: 8733; Renilla control light, replicate 1: 1065; Renilla control light, replicate 2: 1456

What is on record for BRWD3 [DRSC16032]?
firefly reporter light, replicate 1: 19756; Renilla control light, replicate 1: 10050

For CG6709 + Hez [DRSC10165], how do the results read?
firefly reporter light, replicate 1: 7169; Renilla control light, replicate 1: 4784

With CG6709 + Hez [DRSC10698], what does the deposit list?
firefly reporter light, replicate 1: 8884; Renilla control light, replicate 1: 5126

With Cth [DRSC07422], what does the deposit list?
firefly reporter light, replicate 1: 17699; Renilla control light, replicate 1: 5927

Which result is listed for CIAPIN1 [DRSC03559]?
firefly reporter light, replicate 1: 6013; Renilla control light, replicate 1: 1203

What did the screen give for KLHL18 [DRSC15496]?
firefly reporter light, replicate 1: 7920; Renilla control light, replicate 1: 2323

For CG13921 [DRSC08390], what does the deposit list?
firefly reporter light, replicate 1: 19144; firefly reporter light, replicate 2: 6.98e5; Renilla control light, replicate 1: 7360; Renilla control light, replicate 2: 2.88e5

For CG11905 [DRSC09863], what does the deposit list?
firefly reporter light, replicate 1: 5509; Renilla control light, replicate 1: 2989

For CG9338 [DRSC03213], what does the deposit list?
firefly reporter light, replicate 1: 9457; Renilla control light, replicate 1: 3632

How did the screen score CG6503 [DRSC16056]?
firefly reporter light, replicate 1: 25865; Renilla control light, replicate 1: 24816

With SWIP [DRSC19540], what does the deposit list?
firefly reporter light, replicate 1: 18268; Renilla control light, replicate 1: 7698

How did the screen score CG5342 [DRSC15776]?
firefly reporter light, replicate 1: 12761; Renilla control light, replicate 1: 2216

What did the screen give for PRL-1 [DRSC03393]?
firefly reporter light, replicate 1: 3523; firefly reporter light, replicate 2: 7393; Renilla control light, replicate 1: 1721; Renilla control light, replicate 2: 2901

Which result is listed for CG10700 [DRSC02096]?
firefly reporter light, replicate 1: 2177; firefly reporter light, replicate 2: 8086; Renilla control light, replicate 1: 624; Renilla control light, replicate 2: 3208
